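Assay of Toxoplasma gondii numbers, read through their beta-galactosidase reporter with a colour substrate. Compounds at 50 µM. Higher reads as fewer parasites (inferred from which compounds were picked for retests). Of about 18,000 compounds tested this way, about 170 (0.94%) reached 50% or more in at least one test.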

Results are given as percent effect.
How 0% and 100% were set is not recorded. Most values in the screen are low, and negative values occur.
This is an unselected part of the compounds tested.

SMILES	effect
CC1CCN(CC(O)CNC(=O)NCC(F)(F)F)CC1 (stereo not shown)	5.344
c1ccc(C/N=C2/CCCCCN2)nc1	-2.288
CC(C)(C)NC(=O)CNc1cc(CCN)ncn1	3.383
CC(CN)(NCc1ccccc1)C(F)(F)F (stereo not shown)	-4.341
CC(O)(CN)c1ccco1 (stereo not shown)	-0.1752
Cc1n[nH]c(C)c1C	15.7
CC(=O)NCC1CN(c2ncccc2F)CCO1 (stereo not shown)	6.452
CC1CCN(C(CN)C(C)C)CC1 (stereo not shown)	3.188
c1ccc(C2=NN=C(NC3CC3)SC2)cc1	-4.214
CN(Cc1ccsc1)Cc1ccc(S(=O)(=O)N(C)C)o1	-16.75
CCS(=O)(=O)N1CCC(C(=O)NC(C)(C)C)CC1	-0.6783
Cn1ccnc1C1CCCN1 (stereo not shown)	0.05301
NC(=O)NC(=O)Cn1c(C(F)(F)F)nc2ccccc21	16.37
CC(C)c1ccnc(N2CCOC(CCN)C2)n1 (stereo not shown)	18.01
COc1ccc(C(=O)N[C@@H]2CCOC[C@H]2O)cn1	4.635
CN1CCN(C(=O)NCc2ccccc2)CC1	20.16
NC(=O)COc1cccc(NC(=O)c2ccc(Br)o2)c1	2.268
O=C(Nc1cc(F)cc(F)c1)c1ccncc1	4.1
Cc1csc(CN)c1	-7.053
Cc1ncncc1C(=O)NCCC1CCCN1C (stereo not shown)	18.2
CSCCC(N)c1nc2ccccc2[nH]1 (stereo not shown)	8.027
NC(=O)C[C@H](N)c1cccc(Cl)c1	6.302
CN(C(=O)COc1ccccc1C(N)=O)C1CC1	-10.34
Cc1cnc(NCC(O)CN2CCCCC2)nc1 (stereo not shown)	-5.965
CC(N)C(=O)N1CCC(Oc2ccccc2Cl)CC1 (stereo not shown)	29.52
Cc1cc(C#N)no1	8.113
COc1cccc(CCN)n1	6.731
Cc1cc(C(=O)Nc2ccc3c(c2)CCN3)n(C)n1	1.839
CC(C)NC(=O)Nc1cc(C(F)(F)F)c[nH]c1=O	-6.96
CCOCC(=O)NCC1(O)CCCc2ccccc21 (stereo not shown)	3.334
Cc1cc(C)c(CNC(=O)N(C)C)c(=O)[nH]1	-7.757
CN(CCCOc1ccc(F)cc1)CC(=O)NC(N)=O	0.9615
CO[C@H]1[C@@H]2CC[C@H]1CN(C(=O)c1cccc(N)n1)C2	-2.345
Cn1cc(C2CSCCN2Cc2ccon2)cn1 (stereo not shown)	-6.35
COCC(O)CN(C)Cc1c(C)cccc1C (stereo not shown)	-0.1541
CNc1ccc(N)nc1	-2.978
O=C(NC1CCCOc2ccccc21)c1ccncc1 (stereo not shown)	13.6
CCSCc1ccc(C(=O)NCCCOCCO)cc1	42.25
COc1cccc2c1CCC2N (stereo not shown)	4.046
CN(C)CC(=O)Nc1ccc(S(N)(=O)=O)cc1	-18.82
COCCN1CC(NC(=O)c2ccc(N)nc2)CC1=O (stereo not shown)	-10.61
CC(=O)N1CCN(C(=O)CCC(C)C)CC1	-13.31
CCC1CCCCCN1CCCS(C)(=O)=O (stereo not shown)	5.474
COCc1nn(Cc2cccc3cccnc23)c(=O)o1	3.136
COc1cccc(CNCC2CCOC2)c1 (stereo not shown)	52.55
Cc1csc(CNC(=O)Cn2nc(C)cc2C)n1	33.56
CC(C)c1nc(CN2CCn3ccnc3C2)no1	7.206
CCCC(=O)Nc1ccc(S(=O)(=O)NCC)cc1	4.899
CN1CCN(C(=O)C2CCC2)c2ccccc2C1	7.067
CN1CCC(NC(=O)C2CCCN(S(C)(=O)=O)C2)CC1 (stereo not shown)	-4.875
CN(C)C(=O)c1cccnc1SC(F)F	15.25
O=C1COCC(Cc2ccccc2)N1 (stereo not shown)	-23.94
CN1CCN(CCNC(=O)c2ccc(F)cc2)CC1	-0.654
CC(O)C(=O)N1C[C@H]2CN(C(=O)OC(C)(C)C)C[C@H]2C1 (stereo partly shown)	-4.084
Cc1cc(NC(=O)COC(=O)c2cccc(F)c2)[nH]n1	3.257
CC(C)(C)OC(=O)N1CCC(CO)C(F)(F)C1 (stereo not shown)	-13.93
CCOc1cccc(OCCNCCN)c1	3.655
COCCCNc1ccc(C(F)(F)F)cn1	0.4049
CC(C)(C)NC(=O)c1ccc(C(=O)NCC2CC2)cc1	-1.954
CCNC(=O)c1ccc(Cl)nn1	-6.346
Cc1c[nH]c(CN(C)C(=O)c2cc(C(F)F)n[nH]2)n1	-10.55
COc1cccc(S(=O)(=O)N2C[C@H](C3CC3)[C@@H](N)C2)c1	1.911
CNCC(=O)NC1CCN(Cc2ccc(Br)cc2)CC1	38.02
Cc1ccc(NC(=O)CN2CCCC2=O)nc1	0.1756
CC(=O)NC(C(=O)Nc1ccc(Br)cn1)C1CCCC1 (stereo not shown)	-12.35
Cc1nnc(SCC(=O)NC2CC2)n1-c1ccccc1	-22
NC(=O)c1cccc(CSc2nnnn2C2CC2)c1	-6.458
CCOc1ccc(NC(=O)C(C)n2cccn2)cc1 (stereo not shown)	-3.8
c1ccc(-n2nnnc2CN2CCCNCC2)cc1	-0.4926
OC1CCC(Nc2ncccc2Cl)CC1 (stereo not shown)	-3.483
CN(C)CCC1CN(C(=O)C2CCCCC2)CCO1 (stereo not shown)	22.7
Cn1cc(NC(=O)CCc2ccccn2)cn1	-11.54
CN(C)C(=O)C1CCCN(Cc2cccc(F)c2)C1 (stereo not shown)	16.5
CCn1c(C)nnc1SCC(=O)Nc1nccs1	7.63
COc1ccc(NC(=O)[C@H](C)NC(N)=O)cc1Cl	-34.49
CN(CCNC(=O)c1c(O)cc(F)cc1F)C1CC1	12.99
CNc1cc(Cl)ccc1C(=O)N(C)C	2.881
O=C(CCN1CCC[C@H]1CO)Nc1ccccc1	-1.59
CNCc1csc(C(C)OC)n1 (stereo not shown)	0.5534
CC(C)C(C)(C#N)NC(=O)CSCCS(C)(=O)=O (stereo not shown)	3.658
CN(C)CC(=O)Nc1cc(Cl)cc2c1OCC2	3.47
CC(C)OCC(O)CN1CCN(C(C)C)CC1 (stereo not shown)	-5.583
CCNc1ncc(C(=O)NC2CCCCNC2=O)cn1 (stereo not shown)	20.74
Cc1cc(C2CCCN2C(=O)CCS(C)(=O)=O)on1 (stereo not shown)	-27.38
COCCN1CCC(CNC(=O)c2coc(Br)c2)CC1	22.23
CCc1ccccc1NC(=O)C1CC(=O)C1	1.894
CC(CN1CCCCCC1)NCCN(C)S(C)(=O)=O (stereo not shown)	-9.708

Once more, the final 7:

SMILES	effect
CN(C)CC(=O)Nc1cc(Cl)cc2c1OCC2	3.47
CC(C)OCC(O)CN1CCN(C(C)C)CC1 (stereo not shown)	-5.583
CCNc1ncc(C(=O)NC2CCCCNC2=O)cn1 (stereo not shown)	20.74
Cc1cc(C2CCCN2C(=O)CCS(C)(=O)=O)on1 (stereo not shown)	-27.38
COCCN1CCC(CNC(=O)c2coc(Br)c2)CC1	22.23
CCc1ccccc1NC(=O)C1CC(=O)C1	1.894
CC(CN1CCCCCC1)NCCN(C)S(C)(=O)=O (stereo not shown)	-9.708

Measurements from “University of Dundee, Small-Polar-MMV Screening Library” (2021), ChEMBL document CHEMBL3988442.